In article PMC9570369:
No constants are given. Whether binding was seen depends on the method and setting. In cells and extracts the contact can be indirect. Some results given as binding are weak or reduced against the parent protein; the word gives no strength. Tags and fused reporters may be left off the sequences shown.

Molecular target: T1, Flag-tagged human melanoma differentiation-associated gene 5 (MDA5) (human) (UniProt Q9BYX4)
T1 sequence: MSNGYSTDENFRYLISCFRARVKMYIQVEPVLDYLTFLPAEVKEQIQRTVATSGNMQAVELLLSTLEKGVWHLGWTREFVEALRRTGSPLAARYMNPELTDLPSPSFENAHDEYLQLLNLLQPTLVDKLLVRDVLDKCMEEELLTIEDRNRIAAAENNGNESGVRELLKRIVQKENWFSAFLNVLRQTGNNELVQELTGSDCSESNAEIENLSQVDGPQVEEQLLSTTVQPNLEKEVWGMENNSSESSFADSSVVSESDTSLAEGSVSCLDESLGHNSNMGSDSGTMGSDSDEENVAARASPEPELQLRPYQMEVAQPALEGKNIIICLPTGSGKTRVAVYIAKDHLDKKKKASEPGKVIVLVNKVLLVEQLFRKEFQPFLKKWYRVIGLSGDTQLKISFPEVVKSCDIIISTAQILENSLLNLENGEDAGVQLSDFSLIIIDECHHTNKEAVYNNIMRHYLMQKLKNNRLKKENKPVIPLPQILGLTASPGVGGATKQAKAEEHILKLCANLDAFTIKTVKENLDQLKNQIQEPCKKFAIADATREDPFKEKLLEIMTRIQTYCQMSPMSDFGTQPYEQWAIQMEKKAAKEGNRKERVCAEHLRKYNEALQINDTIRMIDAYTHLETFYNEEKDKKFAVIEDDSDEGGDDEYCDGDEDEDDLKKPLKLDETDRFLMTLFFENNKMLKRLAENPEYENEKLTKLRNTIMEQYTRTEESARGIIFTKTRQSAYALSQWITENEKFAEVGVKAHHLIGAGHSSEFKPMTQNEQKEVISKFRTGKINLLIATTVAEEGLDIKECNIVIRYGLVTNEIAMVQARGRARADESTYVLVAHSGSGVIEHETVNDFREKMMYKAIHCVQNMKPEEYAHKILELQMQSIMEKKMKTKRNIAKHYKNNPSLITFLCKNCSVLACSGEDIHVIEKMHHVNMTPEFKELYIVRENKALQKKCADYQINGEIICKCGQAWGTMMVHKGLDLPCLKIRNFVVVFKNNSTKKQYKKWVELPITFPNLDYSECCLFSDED
Experiment: co-IP

**Q.** Which binding does the source give for “Hibit-tagged full-length SARS-CoV-2 nonstructural protein 3 (nsp3) (from UniProt P0DTD1)” here?
**A.** binds
